We go through 1 molecule from PMC4729931.

Experiment [1] concerns the target T1, VANGL2 (human (endogenous in SUM149, SKBR7, PDX)) (UniProt Q9ULK5).
T1 sequence: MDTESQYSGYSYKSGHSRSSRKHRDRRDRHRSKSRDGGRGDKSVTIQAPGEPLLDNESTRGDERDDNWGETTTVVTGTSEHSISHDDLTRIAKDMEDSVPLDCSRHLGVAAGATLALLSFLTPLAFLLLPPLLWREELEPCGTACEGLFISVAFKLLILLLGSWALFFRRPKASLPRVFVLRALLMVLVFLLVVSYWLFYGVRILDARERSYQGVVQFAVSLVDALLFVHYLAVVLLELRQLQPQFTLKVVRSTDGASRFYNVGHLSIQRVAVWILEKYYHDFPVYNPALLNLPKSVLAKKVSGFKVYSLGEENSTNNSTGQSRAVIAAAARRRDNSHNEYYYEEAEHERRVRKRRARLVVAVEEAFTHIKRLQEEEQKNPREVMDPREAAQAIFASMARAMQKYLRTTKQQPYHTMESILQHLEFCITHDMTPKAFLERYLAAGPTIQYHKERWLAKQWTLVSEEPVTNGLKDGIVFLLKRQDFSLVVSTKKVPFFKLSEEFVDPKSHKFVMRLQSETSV
The experiment can be described thus: affinity purification with mass spectrometry.

The target of experiment [2] is T1, VANGL2 (human (endogenous in SUM149, SKBR7, PDX)). In words: affinity purification with mass spectrometry; endogenous VANGL2 complexes immunoprecipitated from SUM149 cell extracts with 2G4 anti-VANGL2 antibody; controls: beads alone or isotypic antibody; LC-MS/MS (LTQ-Velos-Orbitrap).

No constants are given. Whether binding was seen depends on the method and setting. Binding seen in cells or lysates may run through a third protein. A yes stands for co-enrichment or nearness to the bait. Other partners may have been found.

B1: VANGL1 (protein, UniProt Q8TAA9 1-524)
chain: MDTESTYSGYSYYSSHSKKSHRQGERTRERHKSPRNKDGRGSEKSVTIQPPTGEPLLGNDSTRTEEVQDDNWGETTTAITGTSEHSISQEDIARISKDMEDSVGLDCKRYLGLTVASFLGLLVFLTPIAFILLPPILWRDELEPCGTICEGLFISMAFKLLILLIGTWALFFRKRRADMPRVFVFRALLLVLIFLFVVSYWLFYGVRILDSRDRNYQGIVQYAVSLVDALLFIHYLAIVLLELRQLQPMFTLQVVRSTDGESRFYSLGHLSIQRAALVVLENYYKDFTIYNPNLLTASKFRAAKHMAGLKVYNVDGPSNNATGQSRAMIAAAARRRDSSHNELYYEEAEHERRVKKRKARLVVAVEEAFIHIQRLQAEEQQKAPGEVMDPREAAQAIFPSMARALQKYLRITRQQNYHSMESILQHLAFCITNGMTPKAFLERYLSAGPTLQYDKDRWLSTQWRLVSDEAVTNGLRDGIVFVLKCLDFSLVVNVKKIPFIILSEEFIDPKSHKFVLRLQSETSV
For the molecule B1, the binding result in experiment [1] and in experiment [2] was “binds” each time.
